pEC50: −log10 of the molar value.
Test system: normal individual (iCell) hiPSC-CMs
Assay: Optical recording of VF2.1.Cl AP kinetics in normal individual (iCell) hiPSC-CMs, 100 Hz, IC200 KIC
Assay type: cell-based
Conditions: Homo sapiens, 5 min, acute treatment 5 min, n = 3 wells per dose, read-out: EC50 (dose response curve for APD75)

For CC(C)NCC(O)COc1cccc2ccccc12 (stereo not shown) [propranolol], the pEC50 was 4.29.
